Residue numbers refer to the chain shown, from its start. These are yes or no findings as the source states them, for the method shown. In cells and extracts the contact can be indirect.
How the values were obtained:
Test in all cases: cross-linking
[1] = target: T1, FepA E120C (Escherichia coli K-12) (UniProt P05825)
T1 sequence: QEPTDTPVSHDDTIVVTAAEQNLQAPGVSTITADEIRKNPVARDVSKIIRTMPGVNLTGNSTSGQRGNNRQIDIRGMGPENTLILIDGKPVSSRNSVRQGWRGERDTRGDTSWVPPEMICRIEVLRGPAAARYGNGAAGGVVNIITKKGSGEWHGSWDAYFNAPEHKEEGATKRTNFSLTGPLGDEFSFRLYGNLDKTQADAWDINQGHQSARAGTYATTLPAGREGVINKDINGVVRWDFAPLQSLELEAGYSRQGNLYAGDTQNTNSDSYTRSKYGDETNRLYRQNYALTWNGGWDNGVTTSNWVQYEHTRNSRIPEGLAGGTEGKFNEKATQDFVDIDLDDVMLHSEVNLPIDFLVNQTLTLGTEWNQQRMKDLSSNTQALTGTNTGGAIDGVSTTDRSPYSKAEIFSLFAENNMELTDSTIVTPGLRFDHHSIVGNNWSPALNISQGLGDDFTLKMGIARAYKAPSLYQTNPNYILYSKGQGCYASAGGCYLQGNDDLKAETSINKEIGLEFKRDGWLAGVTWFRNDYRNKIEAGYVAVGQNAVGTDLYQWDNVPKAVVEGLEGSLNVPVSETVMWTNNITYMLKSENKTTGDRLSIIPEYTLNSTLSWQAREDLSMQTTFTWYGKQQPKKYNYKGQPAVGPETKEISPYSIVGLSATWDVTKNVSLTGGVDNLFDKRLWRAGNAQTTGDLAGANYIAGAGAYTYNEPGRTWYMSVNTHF

The chains behind the UniProt entries cited, without tags or fusion partners. Where a name states a change or a piece, a line headed by the entry shows the natural chain unless it says otherwise.
UniProt P02929, whole entry, looked up, stated change not applied: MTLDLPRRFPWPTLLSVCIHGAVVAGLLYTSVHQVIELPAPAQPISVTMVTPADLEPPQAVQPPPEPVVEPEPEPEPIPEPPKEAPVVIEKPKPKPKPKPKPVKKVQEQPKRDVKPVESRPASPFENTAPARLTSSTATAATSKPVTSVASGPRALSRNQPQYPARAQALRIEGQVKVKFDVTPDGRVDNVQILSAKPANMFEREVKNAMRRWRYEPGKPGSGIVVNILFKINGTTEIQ

[2] = target: T2, FepA V142C (Escherichia coli K-12) (UniProt P05825)
T2 sequence: T1 sequence with C120E, V142C

[3] = target: T3, FepA V124C (Escherichia coli K-12) (UniProt P05825)
T3 sequence: T1 sequence with C120E, V124C

Measured: binding

TonB C18G A209C (from UniProt P02929 1-239)
no binding: all assays above

TonB C18G M201C (from UniProt P02929 1-239)
no binding: all assays above

TonB C18G N208C (from UniProt P02929 1-239)
no binding: all assays above

TonB C18G Q160C (from UniProt P02929 1-239)
no binding: all assays above

TonB C18G R204C (from UniProt P02929 1-239)
no binding: all assays above

TonB C18G R212C (from UniProt P02929 1-239)
no binding: all assays above

TonB C18G R214C (from UniProt P02929 1-239)
no binding: all assays above

TonB C18G V206C (from UniProt P02929 1-239)
no binding: all assays above
